# PubChem BioAssay AID1259425 | University of Nebraska Medical Center – 2018
# Screen: 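Find knockdowns that reproduce the gene expression pattern seen when KSR1 is lost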 (primary screen)
# Cells: HCT116 human colon cancer cells
# Knock-down reagent: siRNA pool against human genes, 50 nM siRNA
# Detection: 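mRNA of six signature genes measured together by branched-DNA assay after 50 nM siRNA pool, blank removed, divided by geometric mean of two housekeeping genes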
# Scale: BNIP3L mRNA: higher = more BNIP3L transcript after knockdown; NDRG1 mRNA: higher = more NDRG1 transcript after knockdown; BNIP3 mRNA: higher = more BNIP3 transcript after knockdown; ALDOC mRNA: higher = more ALDOC transcript after knockdown
# In all, the deposit lists about 14,000 reagents; shown is a random part of them. Further read-outs or replicates are left out here. No sequences are given here. The record does not give: the time to read-out.
Target gene,"BNIP3L mRNA, set 1","NDRG1 mRNA, set 1","BNIP3 mRNA, set 1","ALDOC mRNA, set 1"
ADGRL2,0.183,0.0851,0.424,0.0561
EXOSC2,0.186,0.458,0.536,0.0391
KIFC3,0.0839,0.115,0.312,-0.00339
CDH19,0.12,0.1,0.259,0.00682
NCSTN,0.12,0.284,0.537,0.123
ARHGAP1,0.0569,0.821,0.293,0.0315
RAMP1,0.0963,0.342,0.261,0.0697
TIMM23B,0.138,0.212,0.519,0.00236
ATP13A1,0.119,0.333,0.307,0.0388

The list goes on, starting with the last 2 of the part before.
Target gene,"BNIP3L mRNA, set 1","NDRG1 mRNA, set 1","BNIP3 mRNA, set 1","ALDOC mRNA, set 1"
TIMM23B,0.138,0.212,0.519,0.00236
ATP13A1,0.119,0.333,0.307,0.0388
SPOCK2,0.154,0.0768,0.154,0.0236
PTH1R,0.0913,0.0603,0.379,0.0248
KIF20A,0.0617,0.222,0.284,0.0201
SRSF10,0.0897,0.355,0.313,0.0122
IGFBP3,0.0546,0.275,0.301,0.0112
APOM,0.109,0.105,0.437,0.0295
MUC3B,0.0823,0.108,0.409,0.0525
GPR142,0.159,0.912,0.255,0.0225
MELTF,0.0335,0.263,0.276,0.0207
PGLYRP1,0.101,0.177,0.265,0.0461
APOE,0.164,0.182,0.288,0.0286
